No constants are given. Whether binding was seen depends on the method and setting. In cells and extracts the contact can be indirect. Some results given as binding are weak or reduced against the parent protein; the word gives no strength. For some of these results: Tags and fused reporters may be left off the sequences shown.
Legend:
Experiment in all cases: co-IP; 293T cells transfected with a Flag-tagged protein for 48 h; lysis in 1% Triton X-100, 50 mM Tris-HCl pH 7.4, 150 mM NaCl; anti-Flag antibody-coated beads, 1.5 h at 4°C; Western blotting
[1] = target: claudin1-Flag (UniProt O95832)
[2] = target: T1, CD81-Flag (UniProt P60033)
T1 sequence: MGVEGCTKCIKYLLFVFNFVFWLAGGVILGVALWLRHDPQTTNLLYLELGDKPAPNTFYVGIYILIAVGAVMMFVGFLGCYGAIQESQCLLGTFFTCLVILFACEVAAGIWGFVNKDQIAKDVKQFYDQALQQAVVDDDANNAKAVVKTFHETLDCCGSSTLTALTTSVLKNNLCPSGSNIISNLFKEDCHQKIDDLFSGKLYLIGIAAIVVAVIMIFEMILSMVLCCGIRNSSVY

The chains behind the UniProt entries cited, without tags or fusion partners. Residues count along the entry.
UniProt O95832: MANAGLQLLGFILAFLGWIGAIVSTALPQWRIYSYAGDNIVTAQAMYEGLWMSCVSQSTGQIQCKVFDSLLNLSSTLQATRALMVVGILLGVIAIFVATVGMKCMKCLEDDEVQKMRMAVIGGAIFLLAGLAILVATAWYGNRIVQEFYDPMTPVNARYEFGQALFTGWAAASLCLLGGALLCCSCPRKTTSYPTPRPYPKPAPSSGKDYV
UniProt Q9NYU2, residues 43-1555: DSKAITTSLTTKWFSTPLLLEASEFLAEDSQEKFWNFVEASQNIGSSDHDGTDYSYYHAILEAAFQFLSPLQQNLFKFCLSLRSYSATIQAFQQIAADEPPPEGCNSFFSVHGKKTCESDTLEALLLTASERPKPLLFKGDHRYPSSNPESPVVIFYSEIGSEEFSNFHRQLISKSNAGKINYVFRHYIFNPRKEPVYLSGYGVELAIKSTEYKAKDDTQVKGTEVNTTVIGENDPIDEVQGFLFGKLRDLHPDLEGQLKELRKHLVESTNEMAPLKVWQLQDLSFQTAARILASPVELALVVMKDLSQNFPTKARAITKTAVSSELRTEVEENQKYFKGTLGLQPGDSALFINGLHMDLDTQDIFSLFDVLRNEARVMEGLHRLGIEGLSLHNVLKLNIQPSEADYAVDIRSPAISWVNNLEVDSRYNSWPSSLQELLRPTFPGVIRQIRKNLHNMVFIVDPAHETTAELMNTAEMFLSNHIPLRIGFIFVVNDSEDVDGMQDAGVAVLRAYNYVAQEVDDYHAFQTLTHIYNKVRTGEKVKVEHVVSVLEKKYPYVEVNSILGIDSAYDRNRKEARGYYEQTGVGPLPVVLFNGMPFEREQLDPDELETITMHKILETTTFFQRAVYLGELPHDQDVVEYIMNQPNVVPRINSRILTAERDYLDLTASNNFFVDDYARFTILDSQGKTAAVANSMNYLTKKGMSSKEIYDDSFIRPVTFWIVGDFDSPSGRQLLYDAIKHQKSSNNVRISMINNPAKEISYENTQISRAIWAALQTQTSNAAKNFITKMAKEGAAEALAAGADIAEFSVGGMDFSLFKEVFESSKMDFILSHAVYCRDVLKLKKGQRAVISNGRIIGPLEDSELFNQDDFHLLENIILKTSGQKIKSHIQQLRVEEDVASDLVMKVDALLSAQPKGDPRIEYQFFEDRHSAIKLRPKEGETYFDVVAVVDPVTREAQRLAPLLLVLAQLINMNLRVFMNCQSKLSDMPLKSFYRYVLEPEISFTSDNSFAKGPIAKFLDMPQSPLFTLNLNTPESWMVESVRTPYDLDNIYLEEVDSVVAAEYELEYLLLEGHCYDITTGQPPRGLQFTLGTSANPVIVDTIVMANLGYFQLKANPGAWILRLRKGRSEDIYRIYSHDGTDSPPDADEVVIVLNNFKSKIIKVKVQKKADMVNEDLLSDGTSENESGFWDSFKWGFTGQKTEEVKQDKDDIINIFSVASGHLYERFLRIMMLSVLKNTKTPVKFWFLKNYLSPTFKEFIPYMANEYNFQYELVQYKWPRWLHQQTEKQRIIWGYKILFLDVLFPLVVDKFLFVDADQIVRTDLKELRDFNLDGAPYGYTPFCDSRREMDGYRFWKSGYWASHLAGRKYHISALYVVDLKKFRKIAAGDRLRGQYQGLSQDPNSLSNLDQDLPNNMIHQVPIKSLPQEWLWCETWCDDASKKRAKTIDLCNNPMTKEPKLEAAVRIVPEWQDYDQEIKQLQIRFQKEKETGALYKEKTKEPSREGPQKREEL

[3] = target: T2, occludin-Flag (UniProt Q16625)
T2 sequence: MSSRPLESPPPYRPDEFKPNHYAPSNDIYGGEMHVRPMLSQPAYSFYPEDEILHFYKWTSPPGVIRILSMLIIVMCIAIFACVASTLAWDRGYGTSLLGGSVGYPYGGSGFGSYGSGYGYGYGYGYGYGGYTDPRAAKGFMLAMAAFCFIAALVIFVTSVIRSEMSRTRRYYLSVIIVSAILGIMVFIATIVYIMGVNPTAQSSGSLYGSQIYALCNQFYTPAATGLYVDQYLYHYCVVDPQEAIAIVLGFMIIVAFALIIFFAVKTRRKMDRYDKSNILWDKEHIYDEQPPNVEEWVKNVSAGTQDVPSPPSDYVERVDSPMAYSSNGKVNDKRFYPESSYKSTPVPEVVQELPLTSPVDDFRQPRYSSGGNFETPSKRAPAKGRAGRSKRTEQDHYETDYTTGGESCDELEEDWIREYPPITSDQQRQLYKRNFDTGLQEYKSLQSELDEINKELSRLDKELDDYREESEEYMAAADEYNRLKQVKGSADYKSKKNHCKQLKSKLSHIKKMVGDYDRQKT

[4] = target: T3, calnexin-Flag (UniProt P27824)
T3 sequence: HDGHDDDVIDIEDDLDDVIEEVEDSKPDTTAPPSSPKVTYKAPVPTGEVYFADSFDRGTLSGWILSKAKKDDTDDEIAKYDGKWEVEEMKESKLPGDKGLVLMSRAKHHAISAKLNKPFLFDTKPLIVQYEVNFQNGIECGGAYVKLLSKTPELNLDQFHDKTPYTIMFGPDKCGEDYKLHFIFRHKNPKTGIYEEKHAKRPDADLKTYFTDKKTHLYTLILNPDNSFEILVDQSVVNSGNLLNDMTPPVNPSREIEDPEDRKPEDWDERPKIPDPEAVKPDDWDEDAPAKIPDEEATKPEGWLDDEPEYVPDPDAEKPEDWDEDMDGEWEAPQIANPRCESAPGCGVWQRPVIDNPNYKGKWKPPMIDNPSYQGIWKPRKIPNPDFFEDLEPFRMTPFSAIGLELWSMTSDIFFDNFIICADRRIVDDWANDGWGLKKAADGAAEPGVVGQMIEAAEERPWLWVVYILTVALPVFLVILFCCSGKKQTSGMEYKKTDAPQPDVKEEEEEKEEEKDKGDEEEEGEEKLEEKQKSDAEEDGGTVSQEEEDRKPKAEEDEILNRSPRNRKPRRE

UDP-glucose:glycoprotein glucosyltransferase 1 (UGGT1), cellular, 293T (from UniProt Q9NYU2 43-1555) (enzyme)
binding [1]: no binding | binding [2]: no binding | binding [3]: no binding | binding [4]: binds

Reference: article PMC6743029
